# Values joined by “and” are separate entries in the source; they are usually repeats but may differ in a detail not shown here. Equal values may be shown once. Read-outs that look alike come from different tables or passages of the source.
# Key:
# [1] = system: S. typhimurium TA98* containing pMOL890; conditions: for Number of His^+ revertants: Furazolidone, TA98* (pMOL890)
# [2] = system: S. typhimurium TA100* containing pMOL890
# [3] = system: S. typhimurium TA104* containing pMOL890
# [4] = system: S. typhimurium TA1535* containing pMOL890; conditions: for Number of His^+ revertants: Furazolidone, TA1535* (pMOL890)
# [5] = system: S. typhimurium TA104 containing pMOL1066; conditions: Salmonella typhimurium
# [6] = system: S. typhimurium TA104 containing pMOL1067; conditions: Salmonella typhimurium
# [7] = system: S. typhimurium TA104 containing pMOL1068; conditions: Salmonella typhimurium
# [8] = system: S. typhimurium TA104 containing pMOL1069; conditions: Salmonella typhimurium
# [9] = system: S. typhimurium TA98 containing pMOL1067; conditions: Salmonella typhimurium
# [10] = system: S. typhimurium TA98 containing pMOL1068; conditions: Salmonella typhimurium
# [11] = system: S. typhimurium TA98 containing pMOL890; conditions: Salmonella typhimurium
# [12] = system: S. typhimurium TA104 containing pMOL890; conditions: Salmonella typhimurium
# [13] = system: TA 98 and TA104 strains containing pMOL1067 or pMOL1068
# S. typhimurium = conditions: cited from earlier work
smiles,measurement,setting,value
O=C1OCCN1/N=C/c1ccc([N+](=O)[O-])o1 [Furazolidone],Conclusion (Ames test),[1],+
same,Number of His^+ revertants,[1]; 0.1 mmol,8
same,Number of His^+ revertants,[1]; 1 mmol,20 and 14
same,Number of His^+ revertants,[1]; 10 mmol,30
same,Conclusion (Ames test),[2],+
same,Number of His^+ revertants,"[2]; Furazolidone, 0.1 mmol, TA100* (pMOL890)",108
same,Conclusion (Ames test),[3],+
same,Conclusion (Ames test),[4],+
same,Number of His^+ revertants,[4]; 0.1 mmol,22
same,Number of His^+ revertants,[4]; 1 mmol,30
same,MINIMAL DETECTED CONCENTRATION (MDC),[5],0.00044 nmol/assay
same,MINIMAL DETECTED CONCENTRATION (MDC),[6],0.00022 nmol/assay
same,MINIMAL DETECTED CONCENTRATION (MDC),[7],0.00022 nmol/assay
same,MINIMAL DETECTED CONCENTRATION (MDC),[8],0.00044 nmol/assay
same,MINIMAL DETECTED CONCENTRATION (MDC),[9],0.00176 nmol/assay
same,MINIMAL DETECTED CONCENTRATION (MDC),[10],0.00176 nmol/assay
same,MINIMAL DETECTED CONCENTRATION (MDC),[11],0.00176 nmol/assay
same,MINIMAL DETECTED CONCENTRATION (MDC),[12],0.00176 nmol/assay
same,"OUTCOME (genotoxicity, final outcome)",[13],pos
same,AMES (result),S. typhimurium,pos
same,MINIMAL DETECTED CONCENTRATION (MDC),S. typhimurium,0.1 nmol/assay

# — patent US6521751B1, “Recombinant nucleic acid sequences and methods for determining both genotoxicity and mutagenicity of a sample and the kinetics of the genotoxicity” (Vlaamse Instelling voor Technologisch Onderzoek (VITO), priority 1998, dated 2003)
